Measured data: PubChem BioAssay AID1259254 (NCATS, 2017)
The deposit covers about 59,000 reagents; shown is a part drawn at random. About 1,550 of all reagents (2.6%) count as active. 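G2 share is only a proxy for re-replication; each gene was hit by three separate siRNAs, and active genes were retested.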 Entries without a mark were called inactive. Reagents against one gene are numbered here. Further read-outs or replicates are left out here. No sequences are given here. Not stated in the record: the amount of reagent.

Assay: 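Genome-wide screen for genes that prevent DNA re-replication in cancer cells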 (primary screen)
Cell system: human HCT116 colorectal cancer cells
Reagent: single siRNA against human genes
Duration: 3 days
Read-out: 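Nuclei stained with Hoechst and imaged; cell-cycle phase assigned by DNA content; G2 share scaled per plate, non-targeting siRNA 0%, GMNN siRNA 100%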
Scale: G2 robust z-score and G2 cells, % of GMNN control: higher = more G2 cells, more excess DNA replication
Rule for the call: 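An siRNA counts as active if its G2 robust z-score lies at least 5 MADs above the screen median; here such calls match roughly 38% of GMNN control or more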

RRP1B (GeneID 23076) #1
- G2 robust z-score: 2.57
- G2 cells, % of GMNN control: 21.1

RRP1B (GeneID 23076) #2
- G2 robust z-score: 0.454
- G2 cells, % of GMNN control: 6.16

RRP1B (GeneID 23076) #3
- G2 robust z-score: 0.184
- G2 cells, % of GMNN control: 4.26

CHRNG (GeneID 1146) #1
- G2 robust z-score: 5.11 (active)
- G2 cells, % of GMNN control: 38.9

CHRNG (GeneID 1146) #2
- G2 robust z-score: 1.66
- G2 cells, % of GMNN control: 14.6

CHRNG (GeneID 1146) #3
- G2 robust z-score: 0.387
- G2 cells, % of GMNN control: 5.69

NF2 (GeneID 4771) #1
- G2 robust z-score: 1.13
- G2 cells, % of GMNN control: 10.9

NF2 (GeneID 4771) #2
- G2 robust z-score: -1.1
- G2 cells, % of GMNN control: -4.74

NF2 (GeneID 4771) #3
- G2 robust z-score: 0.942
- G2 cells, % of GMNN control: 9.59

EIF4H (GeneID 7458) #1
- G2 robust z-score: 1.69
- G2 cells, % of GMNN control: 14.9

EIF4H (GeneID 7458) #2
- G2 robust z-score: -1.19
- G2 cells, % of GMNN control: -5.41

EIF4H (GeneID 7458) #3
- G2 robust z-score: 9.67 (active)
- G2 cells, % of GMNN control: 71

CRYBG3 (GeneID 131544) #1
- G2 robust z-score: -0.632
- G2 cells, % of GMNN control: -1.48

CRYBG3 (GeneID 131544) #2
- G2 robust z-score: 0.429
- G2 cells, % of GMNN control: 5.98

CRYBG3 (GeneID 131544) #3
- G2 robust z-score: -0.00357
- G2 cells, % of GMNN control: 2.94

KRT75 (GeneID 9119) #1
- G2 robust z-score: -0.0129
- G2 cells, % of GMNN control: 2.88

KRT75 (GeneID 9119) #2
- G2 robust z-score: 1.62
- G2 cells, % of GMNN control: 14.4

KRT75 (GeneID 9119) #3
- G2 robust z-score: -0.731
- G2 cells, % of GMNN control: -2.18

DNAH5 (GeneID 1767) #1
- G2 robust z-score: -1.01
- G2 cells, % of GMNN control: -4.13

DNAH5 (GeneID 1767) #2
- G2 robust z-score: 4.43
- G2 cells, % of GMNN control: 34.1

DNAH5 (GeneID 1767) #3
- G2 robust z-score: -0.423
- G2 cells, % of GMNN control: -0.00618

JUP (GeneID 3728) #1
- G2 robust z-score: -0.822
- G2 cells, % of GMNN control: -2.82

JUP (GeneID 3728) #2
- G2 robust z-score: 0.119
- G2 cells, % of GMNN control: 3.8

JUP (GeneID 3728) #3
- G2 robust z-score: 1.49
- G2 cells, % of GMNN control: 13.4

2 entries from above, set out differently.
target	siRNA no.	G2 robust z-score	G2 cells, % of GMNN control
DNAH5 (GeneID 1767)	2	4.43	34.1
DNAH5 (GeneID 1767)	3	-0.423	-0.00618
